PubChem BioAssay AID1508597 – Cure First, 2020
Test: 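Genes whose silencing sensitises or protects ovarian cancer cells against rucaparib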 (primary screen). System: human ovarian carcinoma lines grown from tumours: OCI-P5x (papillary serous) and OCI-C5x (clear cell). Knock-down reagent: siRNA pool against human genes, 1.25 pmol siRNA per well. Time to read-out: 72 h or 96 h, depending on the cell culture. Conditions: rucaparib 20 µM (about IC30) or vehicle, present until read-out. Rucaparib or vehicle: Rucaparib. Cell line: OCI-C5x (clear cell). Detection: 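Luminescent ATP-based viability assay read 72 or 96 h after transfection, depending on culture, given as normalised percent viability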. Reading the numbers: viability, normalised: higher = more viable cells remaining. Hit rule: 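a well counts as a hit if its normalised viability is under 80 percent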. Calls: active = viability under 80%; inactive = viability 80% or more.
This is an unselected part of the about 2,100 reagents, under one of the conditions tested. 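Calls flag viability under 80% in either arm, not effects specific to rucaparib; the reference for percent is not stated.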 A reagent listed more than once was tested more than once; the source does not tell the runs apart. The record does not give: the 100% reference.

RASA3, technical replicate 1 — viability, normalised (%) = 66.1; Call = active
RASA3, technical replicate 2 — viability, normalised (%) = 52.3; Call = active
RASA3, technical replicate 3 — viability, normalised (%) = 45.9; Call = active
TERT, technical replicate 1 — viability, normalised (%) = 48; Call = active
TERT, technical replicate 2 — viability, normalised (%) = 54.8; Call = active
TERT, technical replicate 3 — viability, normalised (%) = 45.3; Call = active
ERCC1, technical replicate 1 — viability, normalised (%) = 33.5; Call = active
ERCC1, technical replicate 1 — viability, normalised (%) = 57.9; Call = active
ERCC1, technical replicate 2 — viability, normalised (%) = 67.9; Call = active
ERCC1, technical replicate 2 — viability, normalised (%) = 39.6; Call = active
ERCC1, technical replicate 3 — viability, normalised (%) = 67.1; Call = active
ERCC1, technical replicate 3 — viability, normalised (%) = 39.8; Call = active
PIWIL4, technical replicate 1 — viability, normalised (%) = 51.1; Call = active
PIWIL4, technical replicate 2 — viability, normalised (%) = 48.5; Call = active
PIWIL4, technical replicate 3 — viability, normalised (%) = 29.3; Call = active
MECP2, technical replicate 1 — viability, normalised (%) = 43; Call = active
MECP2, technical replicate 2 — viability, normalised (%) = 39.1; Call = active
MECP2, technical replicate 3 — viability, normalised (%) = 54.8; Call = active
PLCD1, technical replicate 1 — viability, normalised (%) = 56.1; Call = active
PLCD1, technical replicate 2 — viability, normalised (%) = 48.1; Call = active
PLCD1, technical replicate 3 — viability, normalised (%) = 37.5; Call = active

2 entries from above, ordered by “viability, normalised (%)”, low to high.
RASA3, technical replicate 3 — viability, normalised (%) = 45.9; Call = active
TERT, technical replicate 1 — viability, normalised (%) = 48; Call = active

The results go on.
VRK1, technical replicate 1 — viability, normalised (%) = 59.3; Call = active
VRK1, technical replicate 2 — viability, normalised (%) = 51.5; Call = active
VRK1, technical replicate 3 — viability, normalised (%) = 44.6; Call = active
MAP3K4, technical replicate 1 — viability, normalised (%) = 54.4; Call = active
MAP3K4, technical replicate 2 — viability, normalised (%) = 84.1; Call = inactive
MAP3K4, technical replicate 3 — viability, normalised (%) = 60.2; Call = active
RAX2, technical replicate 1 — viability, normalised (%) = 54.8; Call = active
RAX2, technical replicate 2 — viability, normalised (%) = 61.5; Call = active
RAX2, technical replicate 3 — viability, normalised (%) = 52.4; Call = active
MED7, technical replicate 1 — viability, normalised (%) = 50.5; Call = active
MED7, technical replicate 2 — viability, normalised (%) = 38.9; Call = active
MED7, technical replicate 3 — viability, normalised (%) = 36.9; Call = active
